Results: the supplement of paper PMC8256030
“And” between values parts separate entries of the source, which are not always exact repeats. Equal values may be shown once. Where a name gives a salt, the structure may show the parent alone. This is one part of the list. This data set is noisy: repeats of one test often differ as much as different tests do.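 HEK293T cells were given each compound shortly before transfection with a reporter in which red mCherry is followed by the SARS-CoV-2 frameshift element and then GFP in the −1 frame, so GFP appears only after frameshifting.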

These compounds were tested on SARS-CoV-2 -1 PRF reporter mCherry-FSE-GFP(-1) (assay: mCherry (red) intensity as percent of control; higher = higher upstream reporter expression). Conditions: 10 µM; 24 h; HEK293T.

In order of rising mCherry:
1. Cc1cc(CC(C)CC(C)(C)C)n(O)c(=O)c1 (stereo not given)  36.5%
2. NS(=O)(=O)c1ccc(-n2nc(C(F)(F)F)cc2-c2ccc(F)cc2)cc1 [mavacoxib]  43.6%
3. CC[C@]1(O)C[C@H]2CN(CCc3c([nH]c4ccccc34)[C@@](C(=O)OC)(c3cc4c(cc3OC)N(C=O)[C@H]3[C@@](O)(C(=O)OC)[C@H](OC(C)=O)[C@]5(CC)C=CCN6CC[C@]43[C@@H]65)C2)C1 [Vincristine sulfate]  56%
4. NC1CCN(c2c(F)cc3c(=O)c(C(=O)O)cn(C4CC4)c3c2Cl)C1 (stereo not given) [Clinafloxacin]  61.4%
5. O=C(OCCOCCN1CCCCC1)N1c2ccccc2Sc2cccnc21 [pipazetate]  65.3%
6. CC1(C)S[C@@H]2[C@H](NC(=O)[C@H](N)c3ccccc3)C(=O)N2[C@H]1C(=O)OC1OC(=O)c2ccccc21 (stereo not given in full) [talampicillin]  73.1%
7. Cc1c(Nc2ncccc2C(=O)O)cccc1C(F)(F)F  80.6%
8. CCCCCCOC(=O)NC(=N)c1ccc(NCc2nc3cc(C(=O)N(CCC(=O)OCC)c4ccccn4)ccc3n2C)cc1  87.2%
9. CN(C)[C@@H]1C(=O)C(C(=O)NCNCCCC[C@H](N)C(=O)O)=C(O)[C@@]2(O)C(=O)C3=C(O)c4c(O)cccc4[C@@](C)(O)[C@H]3C[C@@H]12 [Lymecycline]  87.6%
10. CC(C)(Oc1ccc(Cl)cc1)C(=O)OCCNC(=O)c1cccnc1 [picafibrate]  91.6%
11. CC(C)(C)NCC(O)COc1cccc2c1CCC(=O)N2 (stereo not given)  91.9%
12. Nc1c2c(nc3ccccc13)CCCC2 [tacrine]  92.8%
13. N[C@H]1CONC1=O [levcycloserine]  94.8%
14. NS(=O)(=O)c1cc2c(cc1Cl)N=C(CSCc1ccccc1)NS2(=O)=O [benzthiazide]  96%
15. O=C(Nc1ccc([N+](=O)[O-])cc1Cl)c1cc(Cl)ccc1O [niclosamide]  96.9%
16. C=C[C@H]1CN2CC[C@H]1C[C@H]2[C@H](O)c1ccnc2ccc(OC)cc12 [Qualaquin]  97.2%
17. Cn1cnc([N+](=O)[O-])c1Sc1ncnc2nc[nH]c12  98.3%
18. CO[C@H]1C[C@H](O[C@H]2[C@H](C)[C@@H](O[C@@H]3O[C@H](C)C[C@H](N(C)C)[C@H]3OC(C)=O)[C@@H](C)C[C@@]3(CO3)C(=O)[C@H](C)[C@@H](OC(C)=O)[C@@H](C)[C@@H](C)OC(=O)[C@@H]2C)O[C@@H](C)[C@@H]1OC(C)=O [troleandomycin]  99.7%
19. CCOC(N)=O [urethane]  102%
20. Cc1c(-c2ccccc2)oc2c(C(=O)OCCN3CCCCC3)cccc2c1=O [flavoxate]  104%
21. CC(C)OC(=O)C(C(=O)OC(C)C)=C1SC=CS1 [malotilate]  104%
22. NC(=O)c1ccc(F)c2c1C[C@@H](N(C1CCC1)C1CCC1)CO2 [robalzotan]  105%
23. O=S(=O)(O)CCCS(=O)(=O)O  105%
24. C[C@]12CC[C@@H]3c4ccc(OC(=O)c5ccccc5)cc4CC[C@H]3[C@@H]1CC[C@@H]2O [estradiol benzoate]  106%
25. CC(=O)OCC(=O)[C@@]12N=C(C)O[C@@H]1C[C@H]1[C@@H]3CCC4=CC(=O)C=C[C@]4(C)[C@H]3[C@@H](O)C[C@@]12C  109%
26. CO[C@H]1/C=C/O[C@@]2(C)Oc3c(C)c(O)c4c(O)c(c(/C=N/N5CCN(C)CC5)c(O)c4c3C2=O)NC(=O)/C(C)=C\C=C\[C@H](C)[C@H](O)[C@@H](C)[C@@H](O)[C@@H](C)[C@H](OC(C)=O)[C@@H]1C [Rifadin]  110%
27. CN1CCN(CCCN2c3ccccc3Sc3ccc(Cl)cc32)CC1  111%
28. CN1CCc2nc(C(=O)N[C@@H]3C[C@@H](C(=O)N(C)C)CC[C@@H]3NC(=O)C(=O)Nc3ccc(Cl)cn3)sc2C1 [Edoxaban]  111%
29. C/C=C(/C(=C/C)c1ccc(O)cc1)c1ccc(O)cc1 [dienestrol]  113%
30. CCC1(C)OC(=O)N(C)C1=O (stereo not given) [paramethadione]  114%
31. C=C[C@@]1(C)CC(=O)[C@]2(O)[C@@]3(C)[C@@H](O)CCC(C)(C)[C@@H]3[C@H](O)[C@H](OC(C)=O)[C@@]2(C)O1  115%
32. CSCC[C@H](NC(=O)[C@H](Cc1c[nH]c2ccccc12)NC(=O)CCNC(=O)OC(C)(C)C)C(=O)N[C@@H](CC(=O)O)C(=O)N[C@@H](Cc1ccccc1)C(N)=O  117%
33. C=CCc1ccccc1OCC(O)CNC(C)C (stereo not given)  119%
34. CC(=O)Oc1cc2c(s1)CCN(C(C(=O)C1CC1)c1ccccc1F)C2 (stereo not given)  119%
35. COc1cc2c(cc1OC)C(=O)C(CC1CCN(Cc3ccccc3)CC1)C2 (stereo not given) [Donepezil·HCl]  121%
36. CN1CCC(=C2c3ccccc3CCc3cccnc32)CC1  123%

With `CC(C)(O)c1ccccc1CC[C@@H](SCC1(CC(=O)O)CC1)c1cccc(/C=C/c2ccc3ccc(Cl)cc3n2)c1` [montelukast] the mCherry was 88.4% and 88.3%.
With `COc1ncnc(NS(=O)(=O)c2ccc(N)cc2)c1OC` [sulfadoxine] the mCherry was 92.5% and 72.9%.
`Cc1cc(C2CCCCC2)n(O)c(=O)c1` [ciclopirox] was tested, and the mCherry was 78.7% and 62.7%.
`C[C@H]1O[C@H](O[C@H]2[C@H](O)[C@@H](O)[C@@H](O[C@@H]([C@H](O)[C@@H](O)C=O)[C@H](O)CO)O[C@@H]2CO)[C@H](O)[C@@H](O)[C@@H]1N[C@H]1C=C(CO)[C@@H](O)[C@H](O)[C@H]1O` [acarbose] was tested, and the mCherry was 88.6% and 105%.
